Experimental findings from US20040091475A1 (Chugai, published 2004) are described below.

The chains behind the UniProt entries cited, without tags or fusion partners. Residues count along the entry.
UniProt Q08722, residues 19-323: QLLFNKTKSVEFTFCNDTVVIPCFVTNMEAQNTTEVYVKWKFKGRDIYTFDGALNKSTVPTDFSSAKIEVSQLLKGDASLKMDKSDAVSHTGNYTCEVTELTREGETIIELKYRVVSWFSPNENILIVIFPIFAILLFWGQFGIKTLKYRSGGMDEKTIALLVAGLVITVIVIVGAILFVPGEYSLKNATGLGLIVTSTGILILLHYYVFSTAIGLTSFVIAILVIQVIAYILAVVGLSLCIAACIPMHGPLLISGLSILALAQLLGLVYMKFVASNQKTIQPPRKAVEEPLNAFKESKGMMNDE

First the molecules themselves.
B1: MABL2-scFv <LH-4> (scFv)
scFv: DVVMTQSPLSLPVSLGDQASISCRSSQSLVHSNGKTYLHWYLQKPGQSPKLLIYKVSNRFSGVPDRFSGSGSVTDFTLMISRVEAEDLGVYFCSQSTHVPYTFGGGTKLEIKSGGGQVQLQQSGPELVKPGASVKMSCKASGYTFANHVIHWVKQKPGQGLEWIGYIYPYNDGTKYNEKFKDKATLTSDKSSTTAYMDLSSLASEDSAVYYCARGGYYTYDDWGQGTTLTVSSDYKDDDDK
B2: MABL2-scFv <HL-7> (scFv)
scFv: QVQLQQSGPELVKPGASVKMSCKASGYTFANHVIHWVKQKPGQGLEWIGYIYPYNDGTKYNEKFKDKATLTSDKSSTTAYMDLSSLASEDSAVYYCARGGYYTYDDWGQGTTLTVSSGGGGGGSDVVMTQSPLSLPVSLGDQASISCRSSQSLVHSNGKTYLHWYLQKPGQSPKLLIYKVSNRFSGVPDRFSGSGSVTDFTLMISRVEAEDLGVYFCSQSTHVPYTFGGGTKLEIKDYKDDDDK
B3: MABL2-scFv <HL-4> (scFv)
scFv: QVQLQQSGPELVKPGASVKMSCKASGYTFANHVIHWVKQKPGQGLEWIGYIYPYNDGTKYNEKFKDKATLTSDKSSTTAYMDLSSLASEDSAVYYCARGGYYTYDDWGQGTTLTVSSGGGSDVVMTQSPLSLPVSLGDQASISCRSSQSLVHSNGKTYLHWYLQKPGQSPKLLIYKVSNRFSGVPDRFSGSGSVTDFTLMISRVEAEDLGVYFCSQSTHVPYTFGGGTKLEIKDYKDDDDK
B4: MABL2-scFv <HL-6> (scFv)
scFv: QVQLQQSGPELVKPGASVKMSCKASGYTFANHVIHWVKQKPGQGLEWIGYIYPYNDGTKYNEKFKDKATLTSDKSSTTAYMDLSSLASEDSAVYYCARGGYYTYDDWGQGTTLTVSSGGGGGSDVVMTQSPLSLPVSLGDQASISCRSSQSLVHSNGKTYLHWYLQKPGQSPKLLIYKVSNRFSGVPDRFSGSGSVTDFTLMISRVEAEDLGVYFCSQSTHVPYTFGGGTKLEIKDYKDDDDK
B5: MABL2-scFv <HL-5> (scFv)
scFv: QVQLQQSGPELVKPGASVKMSCKASGYTFANHVIHWVKQKPGQGLEWIGYIYPYNDGTKYNEKFKDKATLTSDKSSTTAYMDLSSLASEDSAVYYCARGGYYTYDDWGQGTTLTVSSGGGGSDVVMTQSPLSLPVSLGDQASISCRSSQSLVHSNGKTYLHWYLQKPGQSPKLLIYKVSNRFSGVPDRFSGSGSVTDFTLMISRVEAEDLGVYFCSQSTHVPYTFGGGTKLEIKDYKDDDDK
B6: MABL2-scFv <LH-0> (scFv)
scFv: DVVMTQSPLSLPVSLGDQASISCRSSQSLVHSNGKTYLHWYLQKPGQSPKLLIYKVSNRFSGVPDRFSGSGSVTDFTLMISRVEAEDLGVYFCSQSTHVPYTFGGGTKLEIKQVQLQQSGPELVKPGASVKMSCKASGYTFANHVIHWVKQKPGQGLEWIGYIYPYNDGTKYNEKFKDKATLTSDKSSTTAYMDLSSLASEDSAVYYCARGGYYTYDDWGQGTTLTVSSDYKDDDDK
B7: MABL2-scFv <LH-6> (scFv)
scFv: DVVMTQSPLSLPVSLGDQASISCRSSQSLVHSNGKTYLHWYLQKPGQSPKLLIYKVSNRFSGVPDRFSGSGSVTDFTLMISRVEAEDLGVYFCSQSTHVPYTFGGGTKLEIKSGGGGGQVQLQQSGPELVKPGASVKMSCKASGYTFANHVIHWVKQKPGQGLEWIGYIYPYNDGTKYNEKFKDKATLTSDKSSTTAYMDLSSLASEDSAVYYCARGGYYTYDDWGQGTTLTVSSDYKDDDDK
B8: MABL2-scFv <LH-3> (scFv)
scFv: DVVMTQSPLSLPVSLGDQASISCRSSQSLVHSNGKTYLHWYLQKPGQSPKLLIYKVSNRFSGVPDRFSGSGSVTDFTLMISRVEAEDLGVYFCSQSTHVPYTFGGGTKLEIKSGGQVQLQQSGPELVKPGASVKMSCKASGYTFANHVIHWVKQKPGQGLEWIGYIYPYNDGTKYNEKFKDKATLTSDKSSTTAYMDLSSLASEDSAVYYCARGGYYTYDDWGQGTTLTVSSDYKDDDDK
B9: MABL2-scFv <HL-3> (scFv)
scFv: QVQLQQSGPELVKPGASVKMSCKASGYTFANHVIHWVKQKPGQGLEWIGYIYPYNDGTKYNEKFKDKATLTSDKSSTTAYMDLSSLASEDSAVYYCARGGYYTYDDWGQGTTLTVSSGGSDVVMTQSPLSLPVSLGDQASISCRSSQSLVHSNGKTYLHWYLQKPGQSPKLLIYKVSNRFSGVPDRFSGSGSVTDFTLMISRVEAEDLGVYFCSQSTHVPYTFGGGTKLEIKDYKDDDDK
B10: MABL2-scFv <LH-5> (scFv)
scFv: DVVMTQSPLSLPVSLGDQASISCRSSQSLVHSNGKTYLHWYLQKPGQSPKLLIYKVSNRFSGVPDRFSGSGSVTDFTLMISRVEAEDLGVYFCSQSTHVPYTFGGGTKLEIKSGGGGQVQLQQSGPELVKPGASVKMSCKASGYTFANHVIHWVKQKPGQGLEWIGYIYPYNDGTKYNEKFKDKATLTSDKSSTTAYMDLSSLASEDSAVYYCARGGYYTYDDWGQGTTLTVSSDYKDDDDK
B11: MABL2-scFv <LH-7> (scFv)
scFv: DVVMTQSPLSLPVSLGDQASISCRSSQSLVHSNGKTYLHWYLQKPGQSPKLLIYKVSNRFSGVPDRFSGSGSVTDFTLMISRVEAEDLGVYFCSQSTHVPYTFGGGTKLEIKSGGGGGGQVQLQQSGPELVKPGASVKMSCKASGYTFANHVIHWVKQKPGQGLEWIGYIYPYNDGTKYNEKFKDKATLTSDKSSTTAYMDLSSLASEDSAVYYCARGGYYTYDDWGQGTTLTVSSDYKDDDDK
B12: MABL2-scFv <HL-0> (scFv)
scFv: QVQLQQSGPELVKPGASVKMSCKASGYTFANHVIHWVKQKPGQGLEWIGYIYPYNDGTKYNEKFKDKATLTSDKSSTTAYMDLSSLASEDSAVYYCARGGYYTYDDWGQGTTLTVSSDVVMTQSPLSLPVSLGDQASISCRSSQSLVHSNGKTYLHWYLQKPGQSPKLLIYKVSNRFSGVPDRFSGSGSVTDFTLMISRVEAEDLGVYFCSQSTHVPYTFGGGTKLEIKDYKDDDDK

No constants are given. Whether binding was seen depends on the method and setting. Some entries that bind do so weakly or less than the wild type.

For one assay, the target named is human Integrin Associated Protein (IAP) expressed on mouse leukemia cell line L1210 (human) (UniProt Q08722). The experiment in a line: flow cytometry, FIGS. 40a and 40b.
Take B1: the binding result is recorded as “binds”.
Still for that read-out and setting: the value for B2 was “binds”.
In the case of B3, the binding result is “binds”.
On the same count and under the same terms, the value for B4 was “binds”; that for B5 was “binds”.
Regarding B6, the binding result is “binds”.
Still for that read-out and setting: the value for B7 was “binds”.
Same read-out and setting: the value for B8 was “binds”; that for B9 was “binds”; that for B10 was “binds”.
Same read-out and setting: the value for B11 was “binds”; that for B12 was “binds”.

The target is the same in another assay. The experiment in a line: flow cytometry, COS7 supernatant on L1210 cells expressing human IAP, anti-FLAG detection.
As for B1, the binding entry was “binds”.
Same read-out and setting: the value for B2 was “binds”; that for B3 was “binds”.
Same read-out and setting: the value for B4 was “binds”.
B5: the binding result is listed as “binds”.
The same measure, in the same setting: with B6 the entry was “binds”; with B7, “binds”; with B8, “binds”.
Same read-out and setting: with B9 the entry was “binds”; with B10, “binds”; with B11, “binds”.
Same read-out and setting: with B12 the entry was “binds”.

Another assay shares this target. The experiment in a line: flow cytometry on L1210 cells expressing human IAP; COS7 culture supernatant; mouse anti-FLAG antibody, then FITC-labeled anti-mouse IgG antibody.
As to B1, the binding result is reported as “binds”.
B2: the binding entry is listed as “binds”.
Same read-out and setting: the value for B3 was “binds”; that for B4 was “binds”.
On to B6, for which the binding result is recorded as “binds”.
Still for that read-out and setting: the value for B7 was “binds”; that for B8 was “binds”.
Same read-out and setting: with B9 the entry was “binds”; with B11, “binds”; with B12, “binds”.
